According to article PMC12370185:
The list shows a part of the results.

What was measured:
Assay in all cases: EMSA with sequencing
Details in all cases: 10 mM Tris-Cl pH 7.5, 50 mM NaCl, 1 mM DTT, 0.25 mg/ml BSA, 2 mM MgCl2, 0.025% Nonidet P-40, 5% glycerol; 28 nM nucleosome library; 10 min on ice then 30 min …; high values mean tight binding; double strand, one strand shown
KLF4 + histone octamer = test system: KLF4 + histone octamer
OCT4 + histone octamer = test system: OCT4 + histone octamer
SOX2 + histone octamer = test system: SOX2 + histone octamer
[1] = test system: c-MYC + MAX + histone octamer

Row | Sequence | binding signal (log2 relative supershift) (KLF4 + histone octamer) | binding signal (log2 relative supershift) (OCT4 + histone octamer) | binding signal (log2 relative supershift) (SOX2 + histone octamer) | binding signal (log2 relative supershift) [1]
1 | GATGGACCCTATACGCGGCAAAGCATGATTCTCGCGATCCTGTCTCCTGCTCTGTCAGCAGGGCACTGTACTTGCTGATACCAGGGAATGTTTGTTCTTAAATACCATCATTCCGGACGTGTTTGCCTTGGCCAGTTTTCCATGTACATGCAGAAAGAAGTTTGGACTGATCAATACAGTCCTCTGCCTTGGATCCAGCGACTTTACCGGTGCCAGTCGGATAGTGTTCC | 0.385 | 0.181 | 0.483 | 0.598
2 | GATGGACCCTATACGCGGCCTGCACCTTTGCCAAAAATAGCCCATCTCCATGGCTGGTGGCCAGAGTGGAGCAGGCCCAACACTGAAACTCTTTTCAGACAAGTTGAGGCTGGTTTCCTGAACATAACCCGAAAGCAAATGTGGCTTGCCTTGGAGGTACAGATAAGCATATGCATAACAGATTTTATTACCTATGAGAAAGTACACACCTGCCAGTCGGATAGTGTTCC | 2.18 | 1.02 | 0.378 | 0.719
3 | GATGGACCCTATACGCGGCGACAGCACAAAAGGAACTATCCCAGGTCACACGAGAAACCCGGATGTCATCATAGCACTGGTCATTTTTCACCGCTTGCCCAAATACATGCCGAAACTTGCTCTGTCGTACCACTCGCCTCATCGTGTCTGCAAAGGAAGAGTGAGAATTATGTTAGAATTATGCACCAAACTGAAAGCTTTACTTTTACATGCCAGTCGGATAGTGTTCC | 0.825 | 0.826 | 1.44 | 0.357
4 | GATGGACCCTATACGCGGCTGAATGCCTGTGTGTTCAGTGAACTCTTCCCCTTTGGTGGGTTGGAACTCAGATGTATCCGAATCCCCTGTGAGCTCCGAGAATTGTTCAGCTTACAGCTGCCTGTACATTCTTTGCTCAGACCCATGGAGCTTTGTGTTATGCACATACAGCTTAGTATTCAGCCAGAGCCTCCATTGGACCCACAGGCATGCCAGTCGGATAGTGTTCC | 1.79 | 0.161 | 0.995 | 0.672
5 | GATGGACCCTATACGCGGCCTTGGTAATCTTGAACCAGATGTCAGTCATGAATTTAATCCTCTTGGGAGGATTCTGCAATGCAGAATGCAATGCAATGCAATGCAGATGCAATGCAATGCAGAACAAGGCTGAGCTAGGAAACGTATTCAAGGTTTGCATTTAAGCTTTGTTATGCAGGACCAACACAGCCTTTATTCTGGGGCCAGTTTTGCCAGTCGGATAGTGTTCC | 0.369 | 0.544 | 1.76 | 0.187
6 | GATGGACCCTATACGCGGCATGATTCTCGCCAGTTAAGTGGTATTAACATATCCTCAGTGGTGAGTATTAACATGGAACTTACTCCAACAATACAGATGCTGAATAAATGTAGTCTAAGTGAAGGAAGAAGGAAAGGTGGGAGCTGCCATCACTCAGAATTGTCCAGCAGGGATTGTGCAAGCTTGTGAATAAAGACACAGCGACTTTACTGCCAGTCGGATAGTGTTCC | 0.686 | 1.45 | 0.842 | 0.505
7 | GATGGACCCTATACGCGGCGTGTATGTATGTGTGGAGGTGCATGTGTGCACATGTGTGCGTATGTATTTGTTGGGGTGGGTGCATGTGTGCAAAAGTGTACATATGCATGTATGTGTATGTGTGTGGGTGCATTGTGCTTATGCATCTGTGTGTATATGTGAGTGCATGTGCACATGTGTTTGTGTATGTGTGGGTGCATGTGTGCATATTGCCAGTCGGATAGTGTTCC | 1.82 | 0.746 | 0.125 | 2.43
8 | GATGGACCCTATACGCGGCTCTAGAAGAAACAGCCATTCAGGAAGAGCTTATGAAAGGGGTGGAGAATGCACTGCCTGTGTATGCTGCAAGACCTTTCTGCAGACATTGTGTCTTTGTGAGCTGACTGCAGAGGCCATGTGCATGTGAAATGTATGAGAATGTATGTGTTGCTTATTTCAGATCATGTATGAACCTGTATGAATTGCTGATGCCAGTCGGATAGTGTTCC | 0.642 | 0.349 | 0.9 | 0.0374
9 | GATGGACCCTATACGCGGCGGCTCTGGTCTAGAATGGCACCTTGGCAAGTCAGTTTTGAGTGTTCACAGGAGGTAGACTACTCCTGCCTGTTTGGTCTTTCTTATGGTAGACCTTCACCCAGTCAATAATGGAGTGAATAAAACTCCTCTGTTTCAGCTACCGCTATCTAATTGGCCAGCACAGTCTTTTAGTGGATACCGCTGGCTATTTGCCAGTCGGATAGTGTTCC | 0.953 | 0.432 | 0.216 | 0.542
10 | GATGGACCCTATACGCGGCGCACACTCAGCATTCAGCCTTCATAGGGAACAAAGGTGAGGAGGAGATTAGCATGTTTAAGAAGGGAAACAAGGCCAGTGGGGCAGGTACATTGGGAGTTAGGGTGGCAATCATATGCAATTTGAGAGCTGGGCAGGAATTAGACTGCCAGAGTTTTGTAAGCCATGGTAAGGGGCTTAGGTTTTATTCTATGCCAGTCGGATAGTGTTCC | 1.4 | 0.012 | 1.95 | 0.203
